Source: the supplement of paper PMC4604168 (melanoma cell lines)
The list shows a part of the results. Single values are uncertain, as repeats are few or missing.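 Cells were imaged in 1,536-well plates, and nuclei stained with an antibody against cleaved PARP were counted against all DNA-stained nuclei to give the apoptosis fraction. Screening doses were chosen to leave most cells alive, and resting and induced cleaved-PARP levels differ strongly between cell lines.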

Columns and labels:
Test in all cases: cleaved PARP positive nuclei fraction relative to DMSO control; melanoma cells; higher = more apoptosis
Conditions in all cases: library dose: low library concentration; 72 h
WM115 = test system: WM115
WM1716 = test system: WM1716
WM1745 = test system: WM1745
WM3526 = test system: WM3526
WM3619 = test system: WM3619
WM451Lu = test system: WM451Lu

Structure (SMILES)	cleaved PARP positive nuclei fraction (WM115)	cleaved PARP positive nuclei fraction (WM1716)	cleaved PARP positive nuclei fraction (WM1745)	cleaved PARP positive nuclei fraction (WM3526)	cleaved PARP positive nuclei fraction (WM3619)	cleaved PARP positive nuclei fraction (WM451Lu)
C[C@]1(O)C[C@@H](c2nc(-c3ccc4ccc(-c5ccccc5)nc4c3)c3c(N)nccn32)C1 + CC(C)C[C@H](NC(=O)[C@H](Cc1ccccc1)NC(=O)c1cnccn1)B(O)O [Bortezomib] (first compound 0.4 µM, partner dose 0.001 µM)	61.6%	123%	172%	39.3%	149%	34.4%
CC1(C)CCC(c2ccc(Cl)cc2)=C(CN2CCN(c3ccc(C(=O)NS(=O)(=O)c4ccc(N[C@H](CCN5CCOCC5)CSc5ccccc5)c(S(=O)(=O)C(F)(F)F)c4)cc3)CC2)C1 + C[C@]1(O)C[C@@H](c2nc(-c3ccc4ccc(-c5ccccc5)nc4c3)c3c(N)nccn32)C1 [OSI906] (first compound 0.4 µM, partner dose 0.4 µM)	365%	80.7%	1440%	30.3%	103%	86%
CS(=O)(=O)c1ccc(C(=O)Nc2ccc(Cl)c(-c3ccccn3)c2)c(Cl)c1 [vismodegib] + CCc1ccc(CCOc2ccc(CC3SC(=O)NC3=O)cc2)nc1 [pioglitazone] (first compound 1 µM, partner dose 2 µM)	25.5%	32.7%	92.5%	84.4%	93.9%	63.9%
C[C@@H](N)c1ccc(C(=O)Nc2ccnc3[nH]ccc23)cc1 + COc1cc2c(Oc3ccc4[nH]c(C)cc4c3F)ncnc2cc1OCCCN1CCCC1 [cediranib] (first compound 0.4 µM, partner dose 0.4 µM)	204%	235%	112%	103%	97.7%	80.7%
CC1(C)CCC(c2ccc(Cl)cc2)=C(CN2CCN(c3ccc(C(=O)NS(=O)(=O)c4ccc(N[C@H](CCN5CCOCC5)CSc5ccccc5)c(S(=O)(=O)C(F)(F)F)c4)cc3)CC2)C1 + CCCCCCCCc1ccc(CCC(N)(CO)CO)cc1 [fingolimod] (first compound 0.4 µM, partner dose 2 µM)	203%	167%	315%	170%	112%	190%
NC1(c2ccc(-c3nc4ccn5c(=O)[nH]nc5c4cc3-c3ccccc3)cc2)CCC1 + C=CCNC1=C2C[C@@H](C)C[C@H](OC)[C@H](O)[C@@H](C)/C=C(\C)[C@H](OC(N)=O)[C@@H](OC)/C=C\C=C(/C)C(=O)NC(=CC1=O)C2=O [Tanespimycin] (first compound 0.4 µM, partner dose 0.002 µM)	148%	142%	101%	308%	96.9%	183%
CCCCCCCCc1ccc(CCC(N)(CO)CO)cc1 [fingolimod] + O=C(CCCCCCC(=O)Nc1ccccc1)NO [vorinostat] (first compound 2 µM, partner dose 0.08 µM)	98.8%	158%	101%	56.8%	136%	109%
CN(c1ncccc1CNc1nc(Nc2ccc3c(c2)CC(=O)N3)ncc1C(F)(F)F)S(C)(=O)=O + C=CCn1c(=O)c2cnc(Nc3ccc(N4CCN(C)CC4)cc3)nc2n1-c1cccc(C(C)(C)O)n1 [MK1775] (first compound 0.08 µM, partner dose 0.02 µM)	99.1%	137%	133%	241%	127%	125%
C[C@@H](N)c1ccc(C(=O)Nc2ccnc3[nH]ccc23)cc1 + CC1(C)NC(=O)N(c2ccc([N+](=O)[O-])c(C(F)(F)F)c2)C1=O [nilutamide] (first compound 0.4 µM, partner dose 1 µM)	179%	119%	103%	48.3%	95.8%	79.9%
CC1(C)CCC(c2ccc(Cl)cc2)=C(CN2CCN(c3ccc(C(=O)NS(=O)(=O)c4ccc(N[C@H](CCN5CCOCC5)CSc5ccccc5)c(S(=O)(=O)C(F)(F)F)c4)cc3)CC2)C1 + NC(=O)c1ccc(N(C(N)=O)c2c(F)cccc2F)nc1-c1ccc(F)cc1F [VX702] (first compound 0.4 µM, partner dose 0.4 µM)	309%	91.8%	801%	96.1%	121%	411%
COc1ccc(C2=N[C@@H](c3ccc(Cl)cc3)[C@@H](c3ccc(Cl)cc3)N2C(=O)N2CCNC(=O)C2)c(OC(C)C)c1 [Nutlin-3] + C[C@]1(O)C[C@@H](c2nc(-c3ccc4ccc(-c5ccccc5)nc4c3)c3c(N)nccn32)C1 [OSI906] (first compound 0.1 µM, partner dose 0.4 µM)	80.4%	105%	138%	60.9%	117%	120%
CC(=O)O[C@@]12CO[C@@H]1C[C@H](O)[C@@]1(C)C(=O)[C@H](O)C3=C(C)[C@@H](OC(=O)[C@H](O)[C@@H](NC(=O)OC(C)(C)C)c4ccccc4)C[C@@](O)([C@@H](OC(=O)c4ccccc4)[C@H]21)C3(C)C [Docetaxel] + CC1(C)NC(=O)N(c2ccc([N+](=O)[O-])c(C(F)(F)F)c2)C1=O [nilutamide] (first compound 0.0001 µM, partner dose 1 µM)	241%	702%	259%	142%	98.2%	214%
CC1(C)CCC(c2ccc(Cl)cc2)=C(CN2CCN(c3ccc(C(=O)NS(=O)(=O)c4ccc(N[C@H](CCN5CCOCC5)CSc5ccccc5)c(S(=O)(=O)C(F)(F)F)c4)cc3)CC2)C1 + COCC[n+]1c2c(n(Cc3cnccn3)c1C)C(=O)c1ccccc1C2=O [YM155] (first compound 0.4 µM, partner dose 0.0004 µM)	207%	104%	994%	56.5%	135%	49.5%
NC(=O)c1ccc(N(C(N)=O)c2c(F)cccc2F)nc1-c1ccc(F)cc1F + CCCCCCCCc1ccc(CCC(N)(CO)CO)cc1 [fingolimod] (first compound 0.4 µM, partner dose 2 µM)	82.1%	172%	171%	93.8%	132%	84.3%
CS(=O)(=O)c1ccc(C(=O)Nc2ccc(Cl)c(-c3ccccn3)c2)c(Cl)c1 [vismodegib] + CS(=O)(=O)CCNCc1ccc(-c2ccc3ncnc(Nc4ccc(OCc5cccc(F)c5)c(Cl)c4)c3c2)o1 [lapatinib] (first compound 1 µM, partner dose 0.8 µM)	96.6%	79.4%	96.6%	124%	96.2%	43%
CCCCCCCCc1ccc(CCC(N)(CO)CO)cc1 [fingolimod] + CCc1ccc(CCOc2ccc(CC3SC(=O)NC3=O)cc2)nc1 [pioglitazone] (first compound 2 µM, partner dose 2 µM)	195%	63.3%	100%	190%	195%	88.7%
CCN(CC)CCNC(=O)c1c(C)[nH]c(/C=C2\C(=O)Nc3ccc(F)cc32)c1C [sunitinib] + O=C(CCCCCCC(=O)Nc1ccccc1)NO [vorinostat] (first compound 0.4 µM, partner dose 0.08 µM)	44.4%	32.7%	107%	74.3%	75.2%	92.8%
CCN(CC)CCNC(=O)c1c(C)[nH]c(/C=C2\C(=O)Nc3ccc(F)cc32)c1C [sunitinib] + COc1cc2ncnc(Nc3ccc(Oc4ccccc4)cc3)c2cc1OC [SrcI1] (first compound 0.4 µM, partner dose 2 µM)	48.9%	88%	123%	232%	82.7%	124%
C[C@]1(O)C[C@@H](c2nc(-c3ccc4ccc(-c5ccccc5)nc4c3)c3c(N)nccn32)C1 + C=CCn1c(=O)c2cnc(Nc3ccc(N4CCN(C)CC4)cc3)nc2n1-c1cccc(C(C)(C)O)n1 [MK1775] (first compound 0.4 µM, partner dose 0.02 µM)	156%	53.1%	199%	80.3%	108%	97.4%
NC(=O)c1ccc(N(C(N)=O)c2c(F)cccc2F)nc1-c1ccc(F)cc1F + CC1(C)NC(=O)N(c2ccc([N+](=O)[O-])c(C(F)(F)F)c2)C1=O [nilutamide] (first compound 0.4 µM, partner dose 1 µM)	82%	123%	88.4%	80.3%	85.5%	172%
CN(c1ncccc1CNc1nc(Nc2ccc3c(c2)CC(=O)N3)ncc1C(F)(F)F)S(C)(=O)=O + COc1ccc(COc2ccc(Cc3cnc(N)nc3N)cc2OC)cc1 [GW2580] (first compound 0.08 µM, partner dose 1 µM)	69.8%	86.4%	99.7%	71.1%	113%	87.7%
CN(c1ncccc1CNc1nc(Nc2ccc3c(c2)CC(=O)N3)ncc1C(F)(F)F)S(C)(=O)=O + O=C(O)c1ccc2c(c1)nc(Nc1cccc(Cl)c1)c1ccncc12 [CX4945] (first compound 0.08 µM, partner dose 0.4 µM)	101%	80.2%	98.6%	36.6%	93.9%	110%

As entered above:
C[C@]1(O)C[C@@H](c2nc(-c3ccc4ccc(-c5ccccc5)nc4c3)c3c(N)nccn32)C1 + C=CCn1c(=O)c2cnc(Nc3ccc(N4CCN(C)CC4)cc3)nc2n1-c1cccc(C(C)(C)O)n1 [MK1775] (first compound 0.4 µM, partner dose 0.02 µM) | cleaved PARP positive nuclei fraction (WM1716): 53.1%
CS(=O)(=O)c1ccc(C(=O)Nc2ccc(Cl)c(-c3ccccn3)c2)c(Cl)c1 [vismodegib] + CCc1ccc(CCOc2ccc(CC3SC(=O)NC3=O)cc2)nc1 [pioglitazone] (first compound 1 µM, partner dose 2 µM) | cleaved PARP positive nuclei fraction (WM451Lu): 63.9%
